Laboratory results published in PubChem BioAssay (Tox21).
Several values for one entry are separate records, joined by “and”; a condition that tells them apart may be missing. Identical values can stand only once. The inconclusive results got no clear call from the source; some entries with a clear call stand among them for comparison. A potency beside an inconclusive call is a rough fit, not a confirmed value. Activity calls are given as the source filed them. Unless noted, calls follow the shape of the full dose curve.
% is scaled to controls: 0 for no effect and ±100 for the full control effect; potency is read from the fitted curve at half-maximal effect.

System: not listed separately
Test: cAMP Responsive Elements (CRE) small molecule antagonists, cell-based qHTS assay (AID 1963591; active = well fitted inhibition curve with a large enough effect in the signal ratio in the repeat runs, not every such curve was filed as active; inconclusive = weak or mixed curves, or effect the other way; the % refers to the signal ratio)
Details: CRE-bla HEK293T, beta-lactamase FRET ratio; activity change, negative = inhibition: at 92.4 µM (top of the series) unless noted
How it was run: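 Reporter line CRE-bla HEK 293T in dialyzed-FBS DMEM; cells preincubated 18 h, treated 3 h with compound plus NKH477 (0.25 uM final); LiveBLAzer FRET, 2 h RT.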
For `C#C[C@]1(O)CC[C@H]2[C@@H]3CCC4=CC(=O)CC[C@]4(C)[C@H]3CC[C@@]21C`, the activity change, negative = inhibition was inconclusive: 14% [at 42.4 µM].
For `CCCCOC(=O)[C@@H](C)Oc1ccc(Oc2ccc(C#N)cc2F)cc1`, the Potency was inconclusive: 34.2 µM [activator].
In the case of `CCOc1ccc(N)cc1`, the activity change, negative = inhibition is reported as inconclusive: 0.922%.
In the case of `CC12CC1(C)C(=O)N(c1cc(Cl)cc(Cl)c1)C2=O` (stereo not drawn), the Potency is reported as inconclusive: 32 µM [activator, partial curve].
With `O=C(NC(=O)c1c(F)cccc1F)Nc1cc(Cl)c(Oc2ncc(C(F)(F)F)cc2Cl)c(Cl)c1` the Potency was inconclusive: 7.37 µM [fluorescent, partial curve].
In the case of `O=C(O)c1cc(I)cc(I)c1I`, the Potency is reported as inconclusive: 73.9 µM [activator].
With `CCCC(=O)Cl` the “activity change, negative = inhibition” value was inactive: 12.7%.
For `O=C(O)c1nc(Cl)ccc1Cl`, the activity change, negative = inhibition was inconclusive: 22.8%.
With `C=CC(=O)OC(C)(C)C` the “activity change, negative = inhibition” value was inactive: -0.973%.
With `CO/C=C(/C(=O)OC)c1ccccc1COc1cccc(C(F)(F)F)n1` the activity change, negative = inhibition was inconclusive: -28.4%.
In the case of `c1ccc2c(c1)Sc1ccccc1N2CC1CN2CCC1CC2` (stereo not drawn), the Potency is reported as inconclusive: 33.5 µM.
With `CCOC(=O)Nc1cccc(OC(=O)Nc2ccccc2)c1` the “activity change, negative = inhibition” value was inactive: -0.719%.
For `CCOC(=O)C(Cl)Cc1cc(-n2nc(C)n(C(F)F)c2=O)c(F)cc1Cl` (stereo not drawn), the Potency was inconclusive: 61.1 µM [fluorescent].
For `CO/N=C(/C(=O)OC)c1ccccc1COc1ccccc1C`, the Potency was inconclusive: 21.7 µM [activator, full curve, poor fit].
In the case of `CC(C)(C)c1ccc(CSc2cnn(C(C)(C)C)c(=O)c2Cl)cc1`, the activity change, negative = inhibition is reported as inconclusive: 8.3%.
With `CCc1ccc(C(=O)NN(C(=O)c2cc(C)cc(C)c2)C(C)(C)C)cc1` the activity change, negative = inhibition was inconclusive: -2.2%.
With `Cl/C=C/Cl` the activity change, negative = inhibition was inconclusive: -0.526% and inconclusive: 1.29%.
For `O=C1Nc2ccc(Cl)cc2C(c2ccccc2)=NC1O` (stereo not drawn), the Potency was inconclusive: 24.5 µM [activator, full curve, poor fit] and inconclusive: 27.1 µM [activator, partial curve, poor fit].
With `Cc1cccc(Cc2cnc[nH]2)c1C` the activity change, negative = inhibition was inconclusive: -14.9% [at 42.4 µM].
With `Nc1cc(Cl)ccc1O` the “activity change, negative = inhibition” value was inactive: 2.33%.
With `CCCCCCCCCCBr` the “activity change, negative = inhibition” value was inactive: -1.99%.
For `O=C(NC(=O)c1cc(F)c(F)cc1Cl)Nc1cc(F)ccc1N1CCC(C(=O)O)CC1`, the Potency was inconclusive: 26.6 µM [activator, partial curve].
With `COC(=O)c1ccccc1S(=O)(=O)NC(=O)Nc1nc(C)nc(OC)n1` the Potency was inconclusive: 68.1 µM [activator].

Target: Beta-2 adrenergic receptor (Homo sapiens) (UniProt P07550)
Test: Adrenergic beta2 receptor (ADRB2) small molecule antagonists, cell-based qHTS assay (AID 1963592); also: nearly all actives have a fitted effect of over 50% in size
Details: CHO-ADRB2 cells, isoproterenol-stimulated cAMP HTRF ratio, 0.5 h; activity change, negative = inhibition: at 92.4 µM (top of the series) unless noted
How it was run: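 Assay format: CHO-ADRB2 cells, 18-20hr seeding at 37C/5% CO2, then compound plus 1nM isoproterenol agonist mix for 0.5hr RT. Homogeneous time-resolved fluorescence cAMP detection after 1hr, expressed as 665/615 nm ratio.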
In the case of `CCOc1ccc(N)cc1`, the Potency is reported as inconclusive: 68.7 µM [inhibitor, single point].
For `CC12CC1(C)C(=O)N(c1cc(Cl)cc(Cl)c1)C2=O` (stereo not drawn), the activity change, negative = inhibition was inconclusive: -10.2%.
For `CCC[CH2][Sn]([CH2]CCC)([O]C(C)=O)[O]C(C)=O`, the “activity change, negative = inhibition” value was inactive: 1.35%.
With `COC(=O)c1ccccc1S(=O)(=O)NC(=O)Nc1nc(C)nc(OC)n1` the “activity change, negative = inhibition” value was inactive: 2.99%.

Target: Beta-2 adrenergic receptor (Homo sapiens) (UniProt P07550)
Test: Adrenergic beta2 receptor (ADRB2) small molecule agonists, cell-based qHTS assay (AID 1963593);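 as to activation: CHO cells stably overexpressing human ADRB2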
Details: CHO-ADRB2 cells, cAMP HTRF, 30 min; activation: at 92.4 µM (top of the series) unless noted
How it was run: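 CHO cells stably over-expressing ADRB2 were plated overnight at 37C, then dosed with compounds plus a stimulation mix containing 100uM IBMX and 25uM Ro-20-1724 for 0.5hr at room temperature. cAMP was measured by HTRF competition, 1hr.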
In the case of `NS(=O)(=O)C(F)(F)C(F)(F)C(F)(F)C(F)(F)C(F)(F)C(F)(F)C(F)(F)C(F)(F)F`, the “activation” value is reported as inactive: 4.29%.
For `O=C(OC1CCCCC1)c1ccccc1C(=O)OC1CCCCC1`, the “activation” value was inactive: 6.39%.
In the case of `CCOc1ccc(N)cc1`, the activation is reported as inconclusive: -21.1% and the Potency is reported as inconclusive: 612 nM [inhibitor, partial curve, poor fit].
For `CC12CC1(C)C(=O)N(c1cc(Cl)cc(Cl)c1)C2=O` (stereo not drawn), the Potency was inconclusive: 2.42 µM [inhibitor, full curve, poor fit] and inactive.
With `O=C(NC(=O)c1c(F)cccc1F)Nc1cc(Cl)c(Oc2ncc(C(F)(F)F)cc2Cl)c(Cl)c1` the “activation” value was inactive: 8.62%.
For `CCOS(=O)(=O)OCC`, the activation was inconclusive: 8.32% and inconclusive: 6.36%.
For `Cc1ccccc1[N+](=O)[O-]`, the activation was inconclusive: -25%.
For `O=C(O)c1nc(Cl)ccc1Cl`, the Potency was “inactive”.
For `CO/C=C(/C(=O)OC)c1ccccc1COc1cccc(C(F)(F)F)n1`, the “activation” value was inactive: -4.24%.
For `CCOC(=O)Nc1cccc(OC(=O)Nc2ccccc2)c1`, the “activation” value was inactive: 3.46%.
In the case of `CCOC(=O)C(Cl)Cc1cc(-n2nc(C)n(C(F)F)c2=O)c(F)cc1Cl` (stereo not drawn), the activation is reported as inconclusive: -24.1%.
In the case of `CCCCCCC(=O)CCCCCC/C=C/C[C@@H](O)[C@H](O)[C@@](N)(CO)C(=O)O`, the Potency is reported as inconclusive: 4610 nM [activator, partial curve, poor fit].
For `CO/N=C(/C(=O)OC)c1ccccc1COc1ccccc1C`, the activation was inconclusive: -36.3%.
For `CC(C)(C)c1ccc(CSc2cnn(C(C)(C)C)c(=O)c2Cl)cc1`, the “activation” value was inactive: 9.35%.
With `CCc1ccc(C(=O)NN(C(=O)c2cc(C)cc(C)c2)C(C)(C)C)cc1` the activation was inconclusive: -10.1%.
In the case of `ClC1=C(Cl)[C@]2(Cl)[C@@H]3[C@@H](Cl)[C@H](Cl)C[C@@H]3[C@@]1(Cl)C2(Cl)Cl`, the “activation” value is reported as inactive: 27.3%.
In the case of `O=[N+]([O-])c1ccccc1-c1ccccc1`, the activation is reported as inconclusive: 15.5%.
In the case of `Cl/C=C/Cl`, the Potency is reported as inconclusive: 54.9 nM [inhibitor, full curve, poor fit] and inactive.
In the case of `C(CCOCC1CO1)COCC1CO1` (stereo not drawn), the activation is reported as inconclusive: 6.42%.
For `O=C1Nc2ccc(Cl)cc2C(c2ccccc2)=NC1O` (stereo not drawn), the activation was inconclusive: 24.5%.
In the case of `C[N+]1(C)[C@@H]2CC[C@H]1CC(OC(=O)C(CO)c1ccccc1)C2` (stereo partly drawn), the “activation” value is reported as inactive: 14.3% [at 42.5 µM].
With `Cc1cccc(Cc2cnc[nH]2)c1C` the “activation” value was inactive: 8.79% [at 42.5 µM].
For `CC(Cl)C(=O)O` (stereo not drawn), the “activation” value was inactive: 11.3%.
With `CCCCCCCCCCBr` the “activation” value was inactive: 4.89%.
With `CCC[CH2][Sn]([CH2]CCC)([O]C(C)=O)[O]C(C)=O` the “activation” value was inactive: -0.787%.
With `CC1CN1` (stereo not drawn) the activation was inconclusive: -0.0628%.
For `O=C(NC(=O)c1cc(F)c(F)cc1Cl)Nc1cc(F)ccc1N1CCC(C(=O)O)CC1`, the “activation” value was inactive: 0.348% [at 42.5 µM].
In the case of `COC(=O)c1ccccc1S(=O)(=O)NC(=O)Nc1nc(C)nc(OC)n1`, the activation is reported as inconclusive: 2.98%.
